The structures given here were assigned with low confidence; some may be wrong.
Molecular target: IRAK4 enzyme (Homo sapiens, UniProt Q9NWZ3)
Assay: IRAK4 enzyme inhibition degree (bead-based kinase assay, peptide substrate BMKC-2, 100 μM ATP)
Procedure: 2.5 μl of a compound diluted to 4-fold of a final concentration was put into a 384-well white plate (low volume). 2.5 μl of 0.4 ng/μl IRAK4 enzyme was added thereto, and the resulting mixture was totally reacted for 10 minutes. 5 μl of a mixed liquid of a 6 μM peptide substrate (BMKC-2) and 100 μM ATP was added thereto, the resulting mixture was reacted at room temperature for 60 minutes, then 2.5 μl of 10 mM EDTA was added thereto, and the resulting mixture was reacted again for 10 minutes. 40 nM anti-phospho Thr antibody was aliquoted to 2.5 μl each, 5 μl of a mixed solution of a 160 μl/ml acceptor bead and a donor bead was added thereto, and then the resulting mixture was reacted at room temperature for 60 minutes. Fluorescence signals were measured using a bead experimental apparatus (Fusion alpha-FP Microplate Reader, Perkin Elmer Inc.).
From the detected signal, an activity inhibition rate [% inhibition degree=(the average value of a compound−the average value of a negative control)/(the average value of a positive control−the average value of a negative control)×100] was calculated, and is shown in [Table 1]. Further, a % inhibition degree of the compound at each concentration was obtained, and then a 50% inhibition concentration (IC50 value) was analyzed by a non-linear regression analysis.

Sequences of proteins named here, by UniProt entry; tags and fusion partners are left off.
UniProt Q9NWZ3, whole entry: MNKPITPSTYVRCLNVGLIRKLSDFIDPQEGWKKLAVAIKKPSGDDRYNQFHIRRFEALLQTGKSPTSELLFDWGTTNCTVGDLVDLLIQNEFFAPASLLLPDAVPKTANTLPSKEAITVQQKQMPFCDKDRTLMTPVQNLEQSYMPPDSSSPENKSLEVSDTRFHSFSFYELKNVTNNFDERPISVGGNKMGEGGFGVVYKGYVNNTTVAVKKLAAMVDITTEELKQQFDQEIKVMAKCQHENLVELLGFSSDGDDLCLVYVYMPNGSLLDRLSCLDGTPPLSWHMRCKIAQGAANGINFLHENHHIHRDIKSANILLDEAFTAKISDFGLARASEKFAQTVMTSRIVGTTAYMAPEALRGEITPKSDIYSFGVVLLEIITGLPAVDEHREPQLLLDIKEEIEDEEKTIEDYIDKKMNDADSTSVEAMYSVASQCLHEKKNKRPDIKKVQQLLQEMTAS

`CCn1c(-c2ccc3[nH]c4ncnc(N[C@H]5CC[C@H](N6CCOCC6)CC5)c4c3c2)n[nH]c1=O` was tested, and the IC50 was 314 nM and the “% Inhibition degree @ 1 μM” value (compound 1 μM) was 79%.

Reference: patent US12378250B2, “Tricyclic compound as IRAK4 inhibitor” (KOREA RESEARCH INSTITUTE OF CHEMICAL TECHNOLOGY, priority 2018, dated 2025)
